# In PubChem BioAssay AID504467 (National Center for Advancing Translational Sciences (NCATS), 2011):
# Screen size: about 330,000 compounds; about 7,700 (2.3%) were called active. Inconclusive results, whose numbers are uncertain, are shown with a selection of clear calls. Calls follow the shape of the dose curve; as a rule, active = well fitted inhibition curve with a large enough effect; inconclusive = small, poorly fitted or top-dose-only effect, or effect the other way; inactive = flat fitted curve, though single readings scatter. A potency beside an inconclusive call is a rough fit, not a confirmed value.
# Assay: qHTS screen for small molecules that inhibit ELG1-dependent DNA repair in human embryonic kidney (HEK293T) cells expressing luciferase-tagged ELG1; also: nearly all actives have a fitted effect of over 55% in size
# Conditions: HEK293T ELG1-luciferase reporter, luminescence, 16 h, DNA damage induced by 5-fluorouridine; activity change, negative = inhibition: at 46.1 µM (top of the series)
# Summary of the method: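 Luminescence from the luciferase reporter, measured 30 min after ONE-Glo reagent at room temperature, was the read-out. Beforehand, 2,000 cells per well were exposed for 16 hr at 37 °C to 5-fluorouridine together with compound or vehicle.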
# % is scaled to controls: 0 for no effect and ±100 for the full control effect; potency is read from the fitted curve at half-maximal effect.
Structure (SMILES),Potency,"activity change, negative = inhibition"
Cc1nc(Nc2nc3ccccc3o2)nc2c1CCC2,"inconclusive: 2.06 µM [activator, partial curve]",–
Cc1noc(NS(=O)(=O)c2ccc(NC(=O)c3cnc4n(c3=O)CCS4)cc2)c1C,–,inactive: -3.31%
C/C(CC(=O)NC12CC3CC(CC(C3)C1)C2)=N\NC(=O)c1ccc(F)cc1,–,inactive: 5.12%
COc1ccc(CCNC(=O)c2ccc(Cl)c(S(=O)(=O)N3CCCC3)c2)cc1,"inconclusive: 20.6 µM [inhibitor, single point]",–
O=C(NCCCN1CCOCC1)c1ccc(Br)cc1,"inconclusive: 18.4 µM [activator, single point]",–
CCC(C)Nc1nc(-c2cccc(OC)c2O)nc2ccccc12 (configuration not stated),–,inactive: 17.8%
CN(C)c1ccc(C=Nc2ccccc2C(N)=O)cc1,"inconclusive: 2.31 µM [activator, partial curve]",–
O=C(COC(=O)c1cc([N+](=O)[O-])ccc1N1CCOCC1)c1ccccc1,"inconclusive: 1.46 µM [inhibitor, partial curve]",–
CCC(C)c1ccc(NC(=S)Nc2ccc(OC)cc2C)cc1 (configuration not stated),"inconclusive: 32.6 µM [inhibitor, single point]",–
Cn1cnnc1SCC(=O)c1cc2ccccc2oc1=O,–,inactive: 8.81%
O=C(Nc1ccccc1Cl)c1ccc2c(=O)n3c(nc2c1)CCC3,"inconclusive: 1.83 µM [activator, full curve]",–
CC(C)(C)NC(=O)c1sccc1C(=O)O,"inconclusive: 20.6 µM [activator, single point]",–
COc1cc(C(=O)NCCCN2CCCC2=O)cc(Br)c1OCc1ccccc1,"inconclusive: 18.3 µM [inhibitor, single point]",–
O=C(/C=C/c1ccc2c(c1)OCCCO2)c1ccccc1O,"inconclusive: 9.2 µM [activator, partial curve]",–
CC(C)n1nnnc1SCC(=O)N1N=C(c2cccs2)CC1c1cccs1 (configuration not stated),"inconclusive: 1.16 µM [inhibitor, single point]",–
CCOc1ccc(S(=O)(=O)N2CCCCC2)cc1NC(=O)c1c(CC)noc1C,"inconclusive: 35.5 µM [inhibitor, single point]",–
O=c1c2c3c(sc2nc2n1N=C(c1cccs1)CS2)CCCC3,"inconclusive: 1.16 µM [activator, full curve, poor fit]",–
CCOc1ncccc1C(=O)OCC(=O)N(CC(C)C)c1c(N)n(Cc2ccccc2)c(=O)[nH]c1=O,–,inactive: 1.63%
O=C1CC(N2CCN(c3ccccn3)CC2)C(=O)N1CC(c1ccccc1)c1ccccc1 (configuration not stated),active: 4.11 µM,–
Cc1sc2nc(N)sc2c1C,"inconclusive: 23.1 µM [activator, partial curve, poor fit]",–
O=S(=O)(c1cccc(-c2nnc(SC(F)F)n2-c2ccccc2)c1)N1CCCCC1,"inconclusive: 16.4 µM [inhibitor, single point]",–

# Sorted by length of the SMILES (ascending): some entries from above.
Structure (SMILES),Potency,"activity change, negative = inhibition"
O=C(NCCCN1CCOCC1)c1ccc(Br)cc1,"inconclusive: 18.4 µM [activator, single point]",–
O=S(=O)(c1cccc(-c2nnc(SC(F)F)n2-c2ccccc2)c1)N1CCCCC1,"inconclusive: 16.4 µM [inhibitor, single point]",–
O=C1CC(N2CCN(c3ccccn3)CC2)C(=O)N1CC(c1ccccc1)c1ccccc1 (configuration not stated),active: 4.11 µM,–

# (list continues)

Structure (SMILES),Potency,"activity change, negative = inhibition"
Cc1nnc(SCC(=O)Nc2ncc3c(n2)CC(c2ccccc2)CC3=O)s1 (configuration not stated),–,inactive: -7.22%
COc1cccc(S(=O)(=O)N2CCOCC2)c1,"inconclusive: 14.6 µM [activator, partial curve, poor fit]",–
CN(Cc1cn[nH]c1-c1cc2ccccc2o1)CC1CCOCC1,–,inactive: 1.76%
COc1ccc(CCNC(=O)c2c(Cl)ccc(Cl)c2OC)cc1OC,–,inactive: -13%
Cc1cccn2c(=O)c(/C=C(\C#N)C(=O)NCc3ccco3)c(N3CCCCC3)nc12,active: 18.4 µM,–
Cc1ccc(C(=O)N(C)CC(=O)Nc2ccc(Cl)c(C(F)(F)F)c2)cc1S(=O)(=O)N1CCCCC1,"inconclusive: 23.1 µM [inhibitor, single point]",–
Fc1ccccc1Cn1cc(C(=S)N2CCOCC2)c2ccccc21,–,inactive: -18.3%
CS(=O)(=O)C1=NSC2=NC(=O)/C(=C\c3ccc(OS(=O)(=O)c4ccccc4)cc3)C(=N)N21,"inconclusive: 20.6 µM [activator, partial curve, poor fit]",–
CCOC(=O)c1cnc2c(C(=O)OC)cccc2c1NCc1ccco1,"inconclusive: 25.1 µM [inhibitor, single point]",–
CCc1ccc(C(=O)COC(=O)c2cc([N+](=O)[O-])ccc2N2CCOCC2)cc1,"inconclusive: 29.1 µM [inhibitor, single point]",–
Cc1cccc(OCc2nc(C#N)c(NCc3ccc4c(c3)OCO4)o2)c1,"inconclusive: 29.1 µM [inhibitor, single point]",–
COc1ccc(C(=O)/C=C2\NCCc3cc(OC)c(OC)cc32)cc1OC,active: 14.6 µM,–
O=C(NC1CCN(Cc2ccccc2)CC1)C1CCCN(S(=O)(=O)c2cccc3nonc23)C1 (configuration not stated),"inconclusive: 25.9 µM [inhibitor, single point]",–
CC(C)=CCC/C(C)=C/CNC(=O)CC1C[C@H](C(=O)N(C(C)C)C(C)C)[C@@]2(C)c3[nH]c4ccccc4c3CCN2C1=O (some centres not stated),"inconclusive: 14.6 µM [inhibitor, partial curve, poor fit]",–
O=C(NCCc1ccc(Cl)cc1)c1n[nH]c2ccccc12,"inconclusive: 29.1 µM [activator, single point]",–
CCN(CC)c1ccc(/C=C2\SC(=O)N(C(C)C)C2=O)o1,"inconclusive: 20.6 µM [activator, partial curve]",–
Cc1cccc(NC(=O)c2ccc(NCC3CCCO3)c([N+](=O)[O-])c2)c1 (configuration not stated),"inconclusive: 8.2 µM [activator, partial curve, poor fit]",–
COc1ccc(C(=O)NCCCc2nc3ccccc3n2Cc2ccccc2C)cc1OC,"inconclusive: 18.4 µM [inhibitor, partial curve, poor fit]",–
O=Cc1cccc(OC(=O)c2ccc(Cl)cc2Cl)c1,"inconclusive: 6.51 µM [activator, partial curve]",–
C=C1C(=O)C=C[C@]2(C)C[C@@H]3OC(=O)[C@](C)(O)[C@H]3C[C@@H]12,"inconclusive: 29.1 µM [inhibitor, single point]",–
CCOc1ccc(C(=O)NC(=S)Nc2ccc(N3CCOCC3)c(Cl)c2)cc1[N+](=O)[O-],"inconclusive: 6.51 µM [inhibitor, partial curve]",–
